Laboratory results published in publication PMC7736783 (Nucleic Acids Research, 2020).
Results are given in words; binding and its absence hold for the method and conditions named. In cells and extracts the contact can be indirect. Binding can be weak; no strength is given.

By UniProt entry, the sequences of proteins in these tests, tags left out. Where a name states a change or a piece, a line headed by the entry shows the natural chain unless it says otherwise. Residues count along the entry.
UniProt Q13330: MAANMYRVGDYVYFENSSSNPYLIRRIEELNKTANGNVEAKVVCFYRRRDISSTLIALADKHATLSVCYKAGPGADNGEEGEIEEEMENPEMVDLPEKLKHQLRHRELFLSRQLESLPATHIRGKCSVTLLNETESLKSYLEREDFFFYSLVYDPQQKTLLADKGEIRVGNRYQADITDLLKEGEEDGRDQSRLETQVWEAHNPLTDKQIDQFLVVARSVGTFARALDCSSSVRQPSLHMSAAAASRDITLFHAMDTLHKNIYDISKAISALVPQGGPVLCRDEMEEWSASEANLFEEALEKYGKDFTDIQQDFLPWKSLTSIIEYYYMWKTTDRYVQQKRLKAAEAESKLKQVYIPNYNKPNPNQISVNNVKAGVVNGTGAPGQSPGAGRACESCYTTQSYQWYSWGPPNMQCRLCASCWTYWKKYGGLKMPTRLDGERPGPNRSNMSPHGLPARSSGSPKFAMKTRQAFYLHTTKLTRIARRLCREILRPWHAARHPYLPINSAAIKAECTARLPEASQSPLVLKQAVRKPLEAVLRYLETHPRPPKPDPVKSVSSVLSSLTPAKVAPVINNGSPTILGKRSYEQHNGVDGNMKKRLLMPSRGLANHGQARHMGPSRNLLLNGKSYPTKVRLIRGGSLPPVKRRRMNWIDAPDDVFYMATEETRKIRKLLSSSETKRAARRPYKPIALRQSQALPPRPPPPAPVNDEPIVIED
UniProt Q9UBB5, residues 145-411: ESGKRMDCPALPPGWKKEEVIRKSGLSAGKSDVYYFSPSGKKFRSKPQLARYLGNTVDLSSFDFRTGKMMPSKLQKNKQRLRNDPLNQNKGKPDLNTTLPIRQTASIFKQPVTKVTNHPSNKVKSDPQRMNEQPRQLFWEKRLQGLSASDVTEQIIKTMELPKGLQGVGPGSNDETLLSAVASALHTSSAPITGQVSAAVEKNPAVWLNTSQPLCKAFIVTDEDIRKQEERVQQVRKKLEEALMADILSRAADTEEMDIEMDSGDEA
UniProt Q13547: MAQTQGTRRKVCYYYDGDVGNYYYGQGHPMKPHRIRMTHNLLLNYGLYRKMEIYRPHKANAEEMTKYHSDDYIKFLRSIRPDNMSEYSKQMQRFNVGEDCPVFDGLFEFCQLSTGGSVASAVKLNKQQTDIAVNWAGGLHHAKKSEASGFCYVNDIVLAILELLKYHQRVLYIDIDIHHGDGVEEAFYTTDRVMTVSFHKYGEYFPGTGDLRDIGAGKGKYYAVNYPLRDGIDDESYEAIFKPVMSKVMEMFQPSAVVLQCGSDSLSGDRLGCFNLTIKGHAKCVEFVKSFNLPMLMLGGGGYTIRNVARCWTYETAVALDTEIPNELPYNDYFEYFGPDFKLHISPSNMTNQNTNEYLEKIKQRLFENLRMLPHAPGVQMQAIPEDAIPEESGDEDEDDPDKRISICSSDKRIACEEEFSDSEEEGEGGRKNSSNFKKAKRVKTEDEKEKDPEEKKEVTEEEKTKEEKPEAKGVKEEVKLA

Target: MTA1-Δ26 (MTA1 162–354 with the whole of ELM2 helix 2 deleted) (UniProt Q13330)
Experiment: co-IP; HEK293F cells co-transfected with His10-Flag3-MTA1 construct, HDAC1 and MBD2; clarified lysate on FLAG resin 30 min, washes in 50 mM Tris-HCl pH 7.5, 100 mM potassium acetate, 5% glycerol, RNase A, elution with TEV protease; SDS-PAGE; DNA ratios 1:1:1 and 1:1:4

| Substance | binding |
| --- | --- |
| MBD2 (residues 145–411) (from UniProt Q9UBB5 145-411) (domain or fragment) | no binding |
| HDAC1 (residues 1–482) (from UniProt Q13547 1-482) (enzyme) | binds |
